Results published in the supplement of paper PMC8728848.
The other results are listed elsewhere or left out.

Legend:
Assay in all cases: glycan array binding signal (z-score within array); higher = stronger binding
Details in all cases: glycan notation: IUPAC condensed, linker removed
[1] = target: Fuc(a1-3)[Gal(b1-4)]GlcNAc(b1-4)Gal(b1-4)[Fuc(a1-3)]GlcNAc
Outline: (§1)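 The binding signal is a Z-score computed within each array and averaged over linkers. Arrays of the same protein sequence at different concentrations or buffers were also averaged together. Data originate from 3228 arrays in the Consortium for Functional Glycomics database, kept only where the protein sequence was available.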

[2] = target: Fuc(a1-3)[Gal(b1-4)]GlcNAc(b1-4)Gal(b1-4)[Fuc(a1-3)]GlcNAc(b1-4)Gal(b1-4)[Fuc(a1-3)]GlcNAc
Outline: as §1

[3] = target: Fuc(a1-3)[Gal(b1-4)]GlcNAc(b1-6)GalNAc
Outline: as §1

[4] = target: Fuc(a1-3)[Gal(b1-4)]GlcNAc(b1-6)[Gal(b1-3)GlcNAc(b1-3)]Gal(b1-4)Glc
Outline: as §1

[5] = target: Fuc(a1-3)[Gal(b1-4)]GlcNAc(b1-6)[Neu5Ac(a2-3)Gal(b1-3)]GalNAc
Outline: as §1

[6] = target: Fuc(a1-3)[Gal(b1-4)]GlcNAc6S
Outline: as §1

[7] = target: Fuc(a1-3)[Gal3S(b1-4)]GlcNAc
Outline: as §1

[8] = target: Fuc(a1-3)[Gal3S(b1-4)]GlcNAc6S
Outline: as §1

[9] = target: Fuc(a1-3)[GalNAc(b1-4)]GlcNAc
Outline: as §1

[10] = target: Fuc(a1-3)[GalNAc(b1-4)]GlcNAc6S
Outline: as §1

[11] = target: Fuc(a1-3)[GalNAc3S(b1-4)]GlcNAc
Outline: as §1

Fuc(a1-4)GlcNAc = target: Fuc(a1-4)GlcNAc
Outline: as §1

Fuc(b1-3)GlcNAc = target: Fuc(b1-3)GlcNAc
Outline: as §1

Gal(a1-2)Gal = target: Gal(a1-2)Gal
Outline: as §1

Gal(a1-3)Gal = target: Gal(a1-3)Gal
Outline: as §1

Gal(a1-3)Gal(b1-3)GlcNAc = target: Gal(a1-3)Gal(b1-3)GlcNAc
Outline: as §1

[12] = target: Gal(a1-3)Gal(b1-3)GlcNAc(b1-2)Man(a1-3)[Gal(a1-3)Gal(b1-3)GlcNAc(b1-2)Man(a1-6)]Man(b1-4)GlcNAc(b1-4)GlcNAc
Outline: as §1

[13] = target: Gal(a1-3)Gal(b1-3)GlcNAc(b1-3)GalNAc
Outline: as §1

[14] = target: Gal(a1-3)Gal(b1-3)GlcNAc(b1-6)GalNAc
Outline: as §1

[15] = target: Gal(a1-3)Gal(b1-3)[Fuc(a1-4)]GlcNAc(b1-2)Man(a1-3)[Gal(a1-3)Gal(b1-3)[Fuc(a1-4)]GlcNAc(b1-2)Man(a1-6)]Man(b1-4)GlcNAc(b1-4)GlcNAc
Outline: as §1

Gal(a1-3)Gal(b1-4)Glc = target: Gal(a1-3)Gal(b1-4)Glc
Outline: as §1

Gal(a1-3)Gal(b1-4)GlcNAc = target: Gal(a1-3)Gal(b1-4)GlcNAc
Outline: as §1

[16] = target: Gal(a1-3)Gal(b1-4)GlcNAc(b1-3)GalNAc
Outline: as §1

[17] = target: Gal(a1-3)Gal(b1-4)GlcNAc(b1-6)GalNAc
Outline: as §1

[18] = target: Gal(a1-3)Gal(b1-4)[Fuc(a1-3)]GlcNAc
Outline: as §1

[19] = target: Gal(a1-3)Gal(b1-4)[Fuc(a1-3)]GlcNAc(b1-2)Man(a1-3)[Gal(a1-3)Gal(b1-4)[Fuc(a1-3)]GlcNAc(b1-2)Man(a1-6)]Man(b1-4)GlcNAc(b1-4)GlcNAc
Outline: as §1

Gal(a1-3)GalNAc = target: Gal(a1-3)GalNAc
Outline: as §1

[20] = target: Gal(a1-3)[Gal(a1-4)]Gal(b1-4)GlcNAc
Outline: as §1

[21] = target: Gal(a1-4)Gal(b1-3)GlcNAc(b1-2)Man(a1-3)[Gal(a1-4)Gal(b1-3)GlcNAc(b1-2)Man(a1-6)]Man(b1-4)GlcNAc(b1-4)GlcNAc
Outline: as §1

Gal(a1-4)Gal(b1-4)Glc = target: Gal(a1-4)Gal(b1-4)Glc
Outline: as §1

Gal(a1-4)Gal(b1-4)GlcNAc = target: Gal(a1-4)Gal(b1-4)GlcNAc
Outline: as §1

[22] = target: Gal(a1-4)Gal(b1-4)GlcNAc(b1-2)Man(a1-3)[Gal(a1-4)Gal(b1-4)GlcNAc(b1-2)Man(a1-6)]Man(b1-4)GlcNAc(b1-4)GlcNAc
Outline: as §1

[23] = target: Gal(a1-4)Gal(b1-4)GlcNAc(b1-3)Gal(b1-4)Glc
Outline: as §1

Gal(a1-4)GlcNAc = target: Gal(a1-4)GlcNAc
Outline: as §1

Gal(a1-6)Glc = target: Gal(a1-6)Glc
Outline: as §1

Gal(b1-2)Gal = target: Gal(b1-2)Gal
Outline: as §1

Gal(b1-3)Gal = target: Gal(b1-3)Gal
Outline: as §1

Gal(b1-3)Gal(b1-4)GlcNAc = target: Gal(b1-3)Gal(b1-4)GlcNAc
Outline: as §1

[24] = target: Gal(b1-3)Gal(b1-4)GlcNAc(b1-2)Man(a1-3)[Gal(b1-3)Gal(b1-4)GlcNAc(b1-2)Man(a1-6)]Man(b1-4)GlcNAc(b1-4)GlcNAc
Outline: as §1

Gal(b1-3)GalNAc = target: Gal(b1-3)GalNAc
Outline: as §1

[25] = target: Gal(b1-3)GalNAc(a1-3)[Fuc(a1-2)]Gal(b1-4)Glc
Outline: as §1

[26] = target: Gal(b1-3)GalNAc(a1-3)[Fuc(a1-2)]Gal(b1-4)GlcNAc
Outline: as §1

[27] = target: Gal(b1-3)GalNAc(b1-3)Gal(a1-4)Gal(b1-4)Glc
Outline: as §1

[28] = target: Gal(b1-3)GalNAc(b1-4)Gal(b1-4)Glc
Outline: as §1

[29] = target: Gal(b1-3)GalNAc(b1-4)[Neu5Ac(a2-3)]Gal(b1-4)Glc
Outline: as §1

B1: Intelectin-1a (Mus musculus) (protein)
chain: AEWSHPQFEKAEENLDTNRWGNSFFSSLPRSCKEIKQEHTKAQDGLYFLRTKNGVIYQTFCDMTTAGGGWTLVASVHENNMRGKCTVGDRWSSQQGNRADYPEGDGNWANYNTFGSAEAATSDDYKNPGYFDIQAENLGIWHVPNKSPLHNWRKSSLLRYRTFTGFLQHLGHNLFGLYKKYPVKYGEGKCWTDNGPALPVVYDFGDARKTASYYSPSGQREFTAGYVQFRVFNNERAASALCAGVRVTGCNTEHHCIGGGGFFPEGNPVQCGDFASFDWDGYGTHNGYSSSRKITEAAVLLFYR
- glycan array binding signal (z-score) [1]: -0.178
- glycan array binding signal (z-score) [2]: -0.427
- glycan array binding signal (z-score) [3]: -0.233
- glycan array binding signal (z-score) [4]: 0.377
- glycan array binding signal (z-score) [5]: -0.328
- glycan array binding signal (z-score) [6]: 0.43
- glycan array binding signal (z-score) [7]: 0.708
- glycan array binding signal (z-score) [8]: 0.273
- glycan array binding signal (z-score) [9]: -0.582
- glycan array binding signal (z-score) [10]: 1.19
- glycan array binding signal (z-score) [11]: 0.115
- glycan array binding signal (z-score) (Fuc(a1-4)GlcNAc): 0.317
- glycan array binding signal (z-score) (Fuc(b1-3)GlcNAc): -0.215
- glycan array binding signal (z-score) (Gal(a1-2)Gal): 1.51
- glycan array binding signal (z-score) (Gal(a1-3)Gal): -1.09
- glycan array binding signal (z-score) (Gal(a1-3)Gal(b1-3)GlcNAc): -0.588
- glycan array binding signal (z-score) [12]: 2.64
- glycan array binding signal (z-score) [13]: -0.09
- glycan array binding signal (z-score) [14]: 0.396
- glycan array binding signal (z-score) [15]: -0.757
- glycan array binding signal (z-score) (Gal(a1-3)Gal(b1-4)Glc): -0.214
- glycan array binding signal (z-score) (Gal(a1-3)Gal(b1-4)GlcNAc): 0.098
- glycan array binding signal (z-score) [16]: -1.7
- glycan array binding signal (z-score) [17]: -0.578
- glycan array binding signal (z-score) [18]: 0.274
- glycan array binding signal (z-score) [19]: 2.76
- glycan array binding signal (z-score) (Gal(a1-3)GalNAc): -0.697
- glycan array binding signal (z-score) [20]: 0.625
- glycan array binding signal (z-score) [21]: -1.61
- glycan array binding signal (z-score) (Gal(a1-4)Gal(b1-4)Glc): 0.347
- glycan array binding signal (z-score) (Gal(a1-4)Gal(b1-4)GlcNAc): -0.027
- glycan array binding signal (z-score) [22]: -0.995
- glycan array binding signal (z-score) [23]: 0.434
- glycan array binding signal (z-score) (Gal(a1-4)GlcNAc): -0.186
- glycan array binding signal (z-score) (Gal(a1-6)Glc): 2.06
- glycan array binding signal (z-score) (Gal(b1-2)Gal): 0.735
- glycan array binding signal (z-score) (Gal(b1-3)Gal): 0.171
- glycan array binding signal (z-score) (Gal(b1-3)Gal(b1-4)GlcNAc): 0.187
- glycan array binding signal (z-score) [24]: 1.66
- glycan array binding signal (z-score) (Gal(b1-3)GalNAc): -0.611
- glycan array binding signal (z-score) [25]: 1.24
- glycan array binding signal (z-score) [26]: 0.686
- glycan array binding signal (z-score) [27]: -0.779
- glycan array binding signal (z-score) [28]: -0.48
- glycan array binding signal (z-score) [29]: -0.738
